{"source": "patent US8575152B2", "about": "“Non-steroidal compounds useful as glucocorticoid receptor modulators” (Merck Sharp & Dohme B.V., priority 2005, dated 2013)", "key": {"[1]": {"tested_on": "Collagen type II-Induced Arthritis (paw swelling)", "test": "Anti-arthritic activity in vivo: Collagen type II-Induced Arthritis model in mice", "settings": "male Dba/1 mice, therapeutic model, oral treatment for 3 weeks"}, "LPS-induced TNFα": {"tested_on": "LPS-induced TNFα", "test": "Anti-inflammatory activity in vivo: inhibition of LPS-induced TNFα in mice", "settings": "0.5 mg/kg LPS i.p., compound oral 1 hour before LPS, serum 1½ hours after LPS"}}, "note": "Some entries share one result that the patent states for a list of compounds. For at least one compound, name, drawing or mass did not settle the structure."}
{"smiles": "Cc1cc(C(=O)NC2CCN3c4ccc(-c5ccncc5)cc4C(C)c4ccccc4C3C2)no1", "note": "[Example 19, Rel-N-[(2R,10R, 14bR)-1,2,3,4,10,14b-hexahydro-10-methyl-8-(pyridin-4-yl)dibenzo[c,f]pyrido[1,2-a]azepin-2-yl]-5-methyl-isoxazole-3-carboxamide]", "values": [{"measurement": "ED50, inhibition of paw swelling (anti-arthritic activity)", "setting": "[1]", "result": "< 10", "unit": "mg/kg"}, {"measurement": "ED50, inhibition of LPS-induced TNFα in serum", "setting": "LPS-induced TNFα", "result": "< 10", "unit": "mg/kg"}]}
